This note sets out measurements from the supplement of paper PMC12889115.

This is one part of the list. Values are raw readings; no control value is given beside them.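 In the initial screen, polymyxin B was used at a concentration that permeabilizes Salmonella's outer membrane but not its inner membrane. Maximum growth was set by DMSO wells with or without polymyxin B. Since plates varied, data were ranked per plate, and compounds giving the lowest OD600 advanced as hits.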

The subject of this assay is Salmonella enterica serovar Typhimurium SL1344. Put plainly: bacterial growth OD600 after 18 h with compound and polymyxin B; higher = more bacterial growth (less inhibition). As to conditions: 50 µM, Mueller-Hinton broth.

On to `CN(CCc1ccccc1)C(=O)c1coc(Cn2cnc3ccccc32)n1`, for which, where the note is “polymyxin B 1 µg/mL”, the “bacterial growth OD600” value worked out at 0.883.
On to `O=C(C1CCOCC1)N1CCC(C2CCN(c3ncccn3)CC2)C1` (stereo unspecified), for which the “bacterial growth OD600” value (polymyxin B 0.75 µg/mL) came to 0.757.
On to `COc1ccccc1-c1ccnc(-n2ncc(C(=O)NCCCc3ccncc3)c2C)n1`, for which the “bacterial growth OD600” value (polymyxin B 0.75 µg/mL) came out at 0.886.
As for `CN1CCN(c2ccc(C(=O)N3CCCC(c4ccccc4)CC3)cn2)CC1` (stereo unspecified), the “bacterial growth OD600” value (polymyxin B 1 µg/mL) was found to be 0.9.
As for `COc1ccccc1CCNC(=O)C1CCCN1c1nc(C)c2ccc(S(C)(=O)=O)cc2n1` (stereo unspecified), the “bacterial growth OD600” value (polymyxin B 0.75 µg/mL) was determined as 0.827.
`CCCn1cc(CN2CCN(Cc3ccc(OC)c(C)c3)C(CCO)C2)c(C)n1` (stereo unspecified): the “bacterial growth OD600” value (polymyxin B 1 µg/mL) came to 1.06.
Still for that read-out and setting: in the case of `CCN(C)C(=O)c1coc(COc2ccccc2)n1` it was 0.952; in that of `O=C(c1cccnc1)N1CCC(Oc2ccccc2C(=O)N2CCCC(O)C2)CC1` (stereo unspecified), 1.26.
For the molecule `Cc1ccc(CC2(CCC(=O)N3CCCC3c3nc4ccccc4s3)CCC(=O)N2)cc1` (stereo unspecified), the “bacterial growth OD600” value (polymyxin B 0.75 µg/mL) was 0.893.
As for `O=C1CC(NCc2c[nH]cn2)CN1Cc1cccc2ccccc12` (stereo unspecified), the “bacterial growth OD600” value (polymyxin B 1 µg/mL) came to 0.871.
On to `CC(C)c1cc(C(=O)N2CCC(n3nccc3NC(=O)C(C)(C)C)CC2)on1`, for which the “bacterial growth OD600” value (polymyxin B 1 µg/mL) amounted to 0.911.
Turning to `O=C(c1cc(COc2ccccc2)[nH]n1)N1CCN(C2CCCCC2)CC1`, the “bacterial growth OD600” value (polymyxin B 1 µg/mL) was determined as 1.17.
Still for that read-out and setting: in the case of `O=C(Cc1ccccc1)Nc1ccnn1C1CCN(Cc2cccc3nonc23)CC1` it was 0.831.
On the same count and under the same terms, then `O=C(Nc1ccc(-c2nc3ccccc3[nH]2)cc1)C1CCCN(C2CCOCC2)C1` (stereo unspecified), with 0.999.
For `COc1ccc(C(CC(=O)N(C)Cc2csc(C)n2)c2ccccc2)cc1` (stereo unspecified), the “bacterial growth OD600” value (polymyxin B 1 µg/mL) came out at 0.628.
The same measure, in the same setting: in the case of `CSCC(=O)N1CCCC(N2CCN(c3cccc(C(F)(F)F)c3)CC2)C1` (stereo unspecified) it was 1.12.
`O=C(CN1CCOC1=O)N1CCCC(CCc2cccc(C(F)(F)F)c2)C1` (stereo unspecified): the “bacterial growth OD600” value (polymyxin B 0.75 µg/mL) turned out to be 0.002.
Take `C[C@H](NC(=O)c1cc(Cl)ccc1OC1CCN(C2CCCC2)CC1)C(N)=O`: the “bacterial growth OD600” value (polymyxin B 1 µg/mL) was 1.25.
Take `O=C(NCC1(c2ccccc2)CCCC1)C1CC12CCN(C(=O)/C=C/c1ccccc1)CC2` (stereo unspecified): the “bacterial growth OD600” value (polymyxin B 0.75 µg/mL) is 0.004.
The same measure, in the same setting: then `CC(=O)NCCC(=O)N1CCCC(CCc2cccc(F)c2)C1` (stereo unspecified), with 0.948.
Still for that read-out and setting: then `CC(C)(CNC(=O)c1cc(COc2ccc3c(c2)CCCC3)on1)N1CCOCC1`, with 0.012.
Take `O=C(NCc1cc2cc(Cl)ccc2[nH]1)C1CCC(=O)N(CCCN2CCOCC2)C1` (stereo unspecified): the “bacterial growth OD600” value (polymyxin B 1 µg/mL) amounted to 0.76.
With `C=CCC(=O)N1CCc2[nH]nc(-c3ccc4c(c3)OCO4)c2C1`, for the setting “polymyxin B 0.75 µg/mL”, the “bacterial growth OD600” value was 0.985.
On to `COC(=O)c1cc(CNC(=O)C2CCC2)cc(NS(=O)(=O)c2cccc(C(F)(F)F)c2)c1`, for which the “bacterial growth OD600” value (polymyxin B 0.75 µg/mL) was determined as 0.694.
As to `COCC(C)NC(=O)c1cc(OC)ccc1OC1CCN(C2CCCC2)CC1` (stereo unspecified), the “bacterial growth OD600” value (polymyxin B 1 µg/mL) was determined as 1.21.
On the same count and under the same terms, in the case of `O=CN1CCCN(c2nc3nonc3nc2N2CCCCCC2)CC1` it was 1.12.
Still for that read-out and setting: in the case of `COc1ccc(F)c(CN2CCCC(O)(CN3CCSCC3)C2=O)c1` (stereo unspecified) it was 0.887.
As to `Cc1ccccc1Oc1ncccc1CNC(=O)C1CCN(C)CC1`, the “bacterial growth OD600” value (polymyxin B 0.75 µg/mL) was determined as 0.818.
Regarding `CN(CC1CCN(CCc2ccc(F)cc2)CC1)C(=O)c1scc2c1OCCO2`, for the setting “polymyxin B 1 µg/mL”, the “bacterial growth OD600” value worked out at 1.02.
As to `O=C(NC1CCCN(CCc2ccccc2)C1)c1cccc(N2CCOCC2)c1` (stereo unspecified), under “polymyxin B 0.75 µg/mL”, the “bacterial growth OD600” value came to 0.947.
With `COCCCC1CCN(Cc2c[nH]nc2-c2cc(OC)c(OC)c(OC)c2)CC1`, the “bacterial growth OD600” value (polymyxin B 1 µg/mL) was 0.766.
